This assay concerns the target hG3BP1-TurboID-GFP, expressed from pCS2-hG3BP1-TurboID-GFP in SH-SY5Y cells (human) (UniProt Q13283). Put plainly: proximity labelling; TurboID: SH-SY5Y cells transfected with pCS2-hG3BP1-TurboID-GFP for 36–48 h, biotin for 15 min, RIPA lysate, streptavidin beads, mass spectrometry; 6-OHDA-treated versus untreated cells.

Amino acid sequences for entries named in this document (tags omitted).
UniProt Q13283: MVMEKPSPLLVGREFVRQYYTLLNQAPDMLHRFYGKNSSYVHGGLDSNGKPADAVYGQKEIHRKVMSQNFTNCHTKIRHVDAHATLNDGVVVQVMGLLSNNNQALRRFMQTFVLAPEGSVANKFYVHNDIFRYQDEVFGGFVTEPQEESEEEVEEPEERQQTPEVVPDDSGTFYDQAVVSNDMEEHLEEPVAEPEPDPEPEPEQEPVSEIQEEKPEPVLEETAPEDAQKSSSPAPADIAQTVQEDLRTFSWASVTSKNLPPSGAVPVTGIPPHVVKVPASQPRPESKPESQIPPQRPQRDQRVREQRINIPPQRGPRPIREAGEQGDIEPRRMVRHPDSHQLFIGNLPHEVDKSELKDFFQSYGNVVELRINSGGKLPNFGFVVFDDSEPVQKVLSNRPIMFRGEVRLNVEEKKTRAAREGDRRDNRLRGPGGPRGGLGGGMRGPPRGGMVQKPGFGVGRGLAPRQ
UniProt Q9UBN7: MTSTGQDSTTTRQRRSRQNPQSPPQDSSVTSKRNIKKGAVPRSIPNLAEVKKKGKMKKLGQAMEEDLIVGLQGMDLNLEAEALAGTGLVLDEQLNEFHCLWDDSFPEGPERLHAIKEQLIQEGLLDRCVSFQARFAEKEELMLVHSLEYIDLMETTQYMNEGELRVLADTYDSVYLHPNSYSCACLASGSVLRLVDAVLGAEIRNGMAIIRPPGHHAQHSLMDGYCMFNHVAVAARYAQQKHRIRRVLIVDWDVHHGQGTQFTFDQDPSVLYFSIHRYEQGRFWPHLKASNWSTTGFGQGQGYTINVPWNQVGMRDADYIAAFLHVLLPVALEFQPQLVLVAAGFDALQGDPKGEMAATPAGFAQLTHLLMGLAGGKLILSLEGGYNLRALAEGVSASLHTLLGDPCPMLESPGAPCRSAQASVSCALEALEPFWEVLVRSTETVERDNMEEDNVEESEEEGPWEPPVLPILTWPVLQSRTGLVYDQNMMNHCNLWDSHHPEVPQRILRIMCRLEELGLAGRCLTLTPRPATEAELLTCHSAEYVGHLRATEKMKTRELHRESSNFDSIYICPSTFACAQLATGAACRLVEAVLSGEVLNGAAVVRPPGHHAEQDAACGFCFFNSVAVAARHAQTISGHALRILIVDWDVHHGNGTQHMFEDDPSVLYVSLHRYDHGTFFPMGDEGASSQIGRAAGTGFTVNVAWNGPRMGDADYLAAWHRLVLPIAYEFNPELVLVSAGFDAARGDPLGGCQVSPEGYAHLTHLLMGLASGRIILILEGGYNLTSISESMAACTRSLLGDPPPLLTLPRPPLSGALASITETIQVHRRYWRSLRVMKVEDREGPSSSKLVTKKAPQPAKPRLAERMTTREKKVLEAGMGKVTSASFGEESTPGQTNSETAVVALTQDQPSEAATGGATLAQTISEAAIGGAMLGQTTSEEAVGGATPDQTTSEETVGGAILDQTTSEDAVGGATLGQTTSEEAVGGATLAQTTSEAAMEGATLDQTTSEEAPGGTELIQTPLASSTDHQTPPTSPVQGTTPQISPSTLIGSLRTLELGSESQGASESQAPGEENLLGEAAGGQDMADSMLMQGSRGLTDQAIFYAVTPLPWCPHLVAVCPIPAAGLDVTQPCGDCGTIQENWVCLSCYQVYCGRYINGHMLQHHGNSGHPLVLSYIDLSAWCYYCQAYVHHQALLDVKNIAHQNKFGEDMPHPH

These are yes or no findings as the source states them, for the method shown. Binding seen in cells or lysates may run through a third protein. These calls come from enrichment with a bait or labelling near it, and not all partners need be listed.

As to “HDAC6, endogenous in SH-SY5Y cells (from UniProt Q9UBN7 1-1215) (enzyme)”, the binding entry was “binds”.

The values above are taken from publication PMC11984871, “Perillaldehyde Improves Parkinson‐Like Deficits by Targeting G3BP Mediated Stress Granule Assembly in Preclinical Models” (Advanced Science, 2025).
